Our source for the binding values is PMC9198438.

Sequences of proteins named here, by UniProt entry; tags and fusion partners are left off.
UniProt P23458: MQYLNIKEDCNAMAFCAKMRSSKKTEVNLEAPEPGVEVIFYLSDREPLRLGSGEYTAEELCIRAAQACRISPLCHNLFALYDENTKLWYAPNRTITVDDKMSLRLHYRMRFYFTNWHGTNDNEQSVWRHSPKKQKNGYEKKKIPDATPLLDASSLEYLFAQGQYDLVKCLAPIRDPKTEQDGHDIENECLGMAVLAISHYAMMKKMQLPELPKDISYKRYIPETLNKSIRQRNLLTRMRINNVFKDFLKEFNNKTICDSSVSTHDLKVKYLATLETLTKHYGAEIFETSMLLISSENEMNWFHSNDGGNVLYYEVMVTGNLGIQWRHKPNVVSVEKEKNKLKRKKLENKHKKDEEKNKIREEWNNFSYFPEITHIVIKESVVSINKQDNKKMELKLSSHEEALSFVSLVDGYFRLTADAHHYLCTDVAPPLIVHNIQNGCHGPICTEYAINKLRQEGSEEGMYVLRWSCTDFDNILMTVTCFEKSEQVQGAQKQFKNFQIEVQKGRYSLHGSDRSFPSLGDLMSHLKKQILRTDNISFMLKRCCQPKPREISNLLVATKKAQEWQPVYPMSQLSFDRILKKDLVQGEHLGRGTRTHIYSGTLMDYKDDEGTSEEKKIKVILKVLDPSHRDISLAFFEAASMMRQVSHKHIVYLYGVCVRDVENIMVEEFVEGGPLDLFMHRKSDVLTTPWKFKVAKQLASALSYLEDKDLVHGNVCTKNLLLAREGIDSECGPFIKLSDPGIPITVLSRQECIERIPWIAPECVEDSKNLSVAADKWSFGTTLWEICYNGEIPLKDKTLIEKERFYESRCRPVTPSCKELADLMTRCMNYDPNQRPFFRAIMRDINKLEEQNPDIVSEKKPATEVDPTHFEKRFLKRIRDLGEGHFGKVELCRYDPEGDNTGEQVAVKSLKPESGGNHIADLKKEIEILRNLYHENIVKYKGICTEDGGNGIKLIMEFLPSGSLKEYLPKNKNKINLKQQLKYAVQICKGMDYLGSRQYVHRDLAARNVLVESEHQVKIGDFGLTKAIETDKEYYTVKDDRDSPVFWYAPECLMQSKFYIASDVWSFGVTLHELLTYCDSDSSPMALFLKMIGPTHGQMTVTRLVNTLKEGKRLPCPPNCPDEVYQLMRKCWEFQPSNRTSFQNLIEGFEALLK
UniProt P42224: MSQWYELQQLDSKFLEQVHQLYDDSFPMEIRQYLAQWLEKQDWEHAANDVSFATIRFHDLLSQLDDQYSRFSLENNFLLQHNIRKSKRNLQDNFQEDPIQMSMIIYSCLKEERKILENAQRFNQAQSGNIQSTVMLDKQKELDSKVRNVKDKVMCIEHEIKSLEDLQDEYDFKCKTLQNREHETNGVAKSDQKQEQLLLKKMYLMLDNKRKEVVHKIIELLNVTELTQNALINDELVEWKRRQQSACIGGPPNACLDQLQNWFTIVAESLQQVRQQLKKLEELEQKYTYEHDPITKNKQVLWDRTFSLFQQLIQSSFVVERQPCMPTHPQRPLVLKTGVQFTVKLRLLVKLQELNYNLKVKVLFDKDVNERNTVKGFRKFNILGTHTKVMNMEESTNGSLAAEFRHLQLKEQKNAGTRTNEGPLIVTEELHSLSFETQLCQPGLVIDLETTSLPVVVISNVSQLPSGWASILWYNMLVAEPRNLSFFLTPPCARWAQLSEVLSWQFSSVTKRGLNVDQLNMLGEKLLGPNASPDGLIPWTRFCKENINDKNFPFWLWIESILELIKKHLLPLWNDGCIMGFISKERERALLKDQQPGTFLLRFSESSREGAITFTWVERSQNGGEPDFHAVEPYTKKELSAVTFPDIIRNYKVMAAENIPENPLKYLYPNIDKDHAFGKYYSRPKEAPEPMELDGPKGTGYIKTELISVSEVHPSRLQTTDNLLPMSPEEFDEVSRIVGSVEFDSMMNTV
UniProt P52630: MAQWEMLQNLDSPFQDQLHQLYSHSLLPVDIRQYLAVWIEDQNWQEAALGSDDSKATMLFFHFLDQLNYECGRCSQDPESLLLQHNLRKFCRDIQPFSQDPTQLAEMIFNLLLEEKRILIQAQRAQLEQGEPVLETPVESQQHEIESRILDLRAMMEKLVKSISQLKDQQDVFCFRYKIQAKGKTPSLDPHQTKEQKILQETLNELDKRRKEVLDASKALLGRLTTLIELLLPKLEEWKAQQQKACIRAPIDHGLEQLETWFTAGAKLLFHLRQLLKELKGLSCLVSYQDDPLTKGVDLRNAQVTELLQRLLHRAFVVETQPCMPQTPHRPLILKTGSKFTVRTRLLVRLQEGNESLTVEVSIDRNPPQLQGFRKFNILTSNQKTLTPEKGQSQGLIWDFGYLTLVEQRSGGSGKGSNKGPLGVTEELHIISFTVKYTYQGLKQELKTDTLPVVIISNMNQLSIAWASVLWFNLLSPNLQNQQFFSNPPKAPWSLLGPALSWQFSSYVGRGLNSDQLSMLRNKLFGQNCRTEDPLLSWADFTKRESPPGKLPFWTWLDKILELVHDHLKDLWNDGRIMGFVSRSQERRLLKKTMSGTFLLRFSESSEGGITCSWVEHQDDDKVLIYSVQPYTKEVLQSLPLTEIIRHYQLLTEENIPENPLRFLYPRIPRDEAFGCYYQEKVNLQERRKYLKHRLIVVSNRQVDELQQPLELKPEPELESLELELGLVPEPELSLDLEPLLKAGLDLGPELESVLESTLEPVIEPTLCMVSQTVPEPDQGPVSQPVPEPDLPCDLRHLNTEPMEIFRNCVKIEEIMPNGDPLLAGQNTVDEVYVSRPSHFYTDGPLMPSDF
UniProt Q5XX07: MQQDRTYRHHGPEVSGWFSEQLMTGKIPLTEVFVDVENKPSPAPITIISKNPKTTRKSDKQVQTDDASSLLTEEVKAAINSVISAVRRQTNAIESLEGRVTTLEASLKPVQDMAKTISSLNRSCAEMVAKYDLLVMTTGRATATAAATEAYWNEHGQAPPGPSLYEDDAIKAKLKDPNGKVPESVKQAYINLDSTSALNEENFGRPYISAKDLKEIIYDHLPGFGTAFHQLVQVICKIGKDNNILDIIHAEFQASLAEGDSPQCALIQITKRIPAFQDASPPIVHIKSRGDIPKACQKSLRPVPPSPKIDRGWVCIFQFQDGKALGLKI

What all share (test): co-IP
Assay [1] deals with Jak1 with a C-terminal V5-tag (UniProt P23458).
The next assay concerns the target FLAG-tagged STAT1 (UniProt P42224).
The next assay concerns the target FLAG-tagged STAT2 (UniProt P52630).

These are yes or no findings as the source states them, for the method shown. Binding seen in cells or lysates may run through a third protein. For part of these data: Tags and fused reporters may be left off the sequences shown.

For “FLAG-tagged Sudan Ebola virus VP35 protein (from UniProt Q5XX07 1-329)”, in assay [1], the binding result is recorded as “no binding”.

B1: V5-Wnt7A (protein, UniProt O00755 32-349)
chain: LGASIICNKIPGLAPRQRAICQSRPDAIIVIGEGSQMGLDECQFQFRNGRWNCSALGERTVFGKELKVGSREAAFTYAIIAAGVAHAITAACTQGNLSDCGCDKEKQGQYHRDEGWKWGGCSADIRYGIGFAKVFVDAREIKQNARTLMNLHNNEAGRKILEENMKLECKCHGVSGSCTTKTCWTTLPQFRELGYVLKDKYNEAVHVEPVRASRNKRPTFLKIKKPLSYRKPMDTDLVYIEKSPNYCEEDPVTGSVGTQGRACNKTAPQASGCDLMCCGRGYNTHQYARVWQCNCKFHWCCYVKCNTCSERTEMYTCK
Regarding B1, the binding entry in the assay with FLAG-tagged STAT1 and in the assay with FLAG-tagged STAT2 was “no binding” throughout.
